Results published in doi:10.1101/423210.

Key:
[1] = biological target: T1, Ago3 (Drosophila melanogaster (endogenous in ovaries)) (UniProt Q7PLK0); experiment: co-IP
T1 sequence: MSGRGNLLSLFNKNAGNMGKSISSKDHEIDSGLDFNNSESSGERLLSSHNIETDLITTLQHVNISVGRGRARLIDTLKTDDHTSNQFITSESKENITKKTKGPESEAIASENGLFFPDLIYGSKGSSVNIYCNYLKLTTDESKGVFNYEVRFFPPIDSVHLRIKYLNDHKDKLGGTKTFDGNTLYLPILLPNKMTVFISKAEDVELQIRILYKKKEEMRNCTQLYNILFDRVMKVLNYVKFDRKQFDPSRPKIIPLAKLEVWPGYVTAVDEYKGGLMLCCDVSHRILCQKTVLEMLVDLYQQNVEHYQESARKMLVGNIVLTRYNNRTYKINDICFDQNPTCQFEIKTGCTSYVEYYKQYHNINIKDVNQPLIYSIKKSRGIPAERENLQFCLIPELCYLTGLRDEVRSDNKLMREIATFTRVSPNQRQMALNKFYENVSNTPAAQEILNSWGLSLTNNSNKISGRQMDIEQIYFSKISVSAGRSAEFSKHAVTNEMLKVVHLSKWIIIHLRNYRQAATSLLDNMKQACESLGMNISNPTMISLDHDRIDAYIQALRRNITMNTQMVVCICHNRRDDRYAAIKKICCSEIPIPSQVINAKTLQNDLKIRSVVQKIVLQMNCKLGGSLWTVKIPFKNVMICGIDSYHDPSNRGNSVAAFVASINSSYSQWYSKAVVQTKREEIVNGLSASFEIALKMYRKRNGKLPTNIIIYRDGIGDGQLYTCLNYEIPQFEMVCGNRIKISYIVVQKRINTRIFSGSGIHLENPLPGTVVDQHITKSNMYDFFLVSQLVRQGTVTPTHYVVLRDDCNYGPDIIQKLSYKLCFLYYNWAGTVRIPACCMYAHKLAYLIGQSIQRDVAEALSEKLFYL

[2] = biological target: Hop (Hsp70/Hsp90 organizing protein homolog) (Drosophila melanogaster (endogenous in ovaries)) (UniProt Q9VPN5); experiment: co-IP

Hop (Hsp70/Hsp90 organizing protein homolog) (from UniProt Q9VPN5)
binding [1]: binds

B1: Ago3 (protein, UniProt Q7PLK0 1-867)
chain: MSGRGNLLSLFNKNAGNMGKSISSKDHEIDSGLDFNNSESSGERLLSSHNIETDLITTLQHVNISVGRGRARLIDTLKTDDHTSNQFITSESKENITKKTKGPESEAIASENGLFFPDLIYGSKGSSVNIYCNYLKLTTDESKGVFNYEVRFFPPIDSVHLRIKYLNDHKDKLGGTKTFDGNTLYLPILLPNKMTVFISKAEDVELQIRILYKKKEEMRNCTQLYNILFDRVMKVLNYVKFDRKQFDPSRPKIIPLAKLEVWPGYVTAVDEYKGGLMLCCDVSHRILCQKTVLEMLVDLYQQNVEHYQESARKMLVGNIVLTRYNNRTYKINDICFDQNPTCQFEIKTGCTSYVEYYKQYHNINIKDVNQPLIYSIKKSRGIPAERENLQFCLIPELCYLTGLRDEVRSDNKLMREIATFTRVSPNQRQMALNKFYENVSNTPAAQEILNSWGLSLTNNSNKISGRQMDIEQIYFSKISVSAGRSAEFSKHAVTNEMLKVVHLSKWIIIHLRNYRQAATSLLDNMKQACESLGMNISNPTMISLDHDRIDAYIQALRRNITMNTQMVVCICHNRRDDRYAAIKKICCSEIPIPSQVINAKTLQNDLKIRSVVQKIVLQMNCKLGGSLWTVKIPFKNVMICGIDSYHDPSNRGNSVAAFVASINSSYSQWYSKAVVQTKREEIVNGLSASFEIALKMYRKRNGKLPTNIIIYRDGIGDGQLYTCLNYEIPQFEMVCGNRIKISYIVVQKRINTRIFSGSGIHLENPLPGTVVDQHITKSNMYDFFLVSQLVRQGTVTPTHYVVLRDDCNYGPDIIQKLSYKLCFLYYNWAGTVRIPACCMYAHKLAYLIGQSIQRDVAEALSEKLFYL
binding [2]: binds

No constants are given. Whether binding was seen depends on the method and setting. Binding seen in cells or lysates may run through a third protein. A result given as binding can be weak or reduced; the word gives no strength.
